Test results reported in patent US9908899B2 (BIOMARIN PHARMACEUTICAL INC., priority 2011, dated 2018).

System: C57BL/6J male mice
Assay: Long term memory for object recognition (ORM)
Format: in vivo
Details: s.c. 3, 10, 30 mg/kg
Protocol: C57BL/6J male mice were handled 1-2 min for 5 days and were habituated to the experimental apparatus 5 min a day for 4 consecutive days in the absence of objects. […] 24-h later mice were tested for memory retention (5 min) using the object recognition memory task (ORM), in which a familiar object was replaced with a novel one. All training and testing trials were videotaped and analyzed by individuals blind to the treatment condition and the genotype of subjects. A mouse was scored as exploring an object when its head was oriented toward the object within a distance of 1 cm or when the nose was touching the object. The relative exploration time was recorded and expressed by a discrimination index [DI=(tnovel−tfamiliar)/(tnovel+tfamiliar)×100].

Cc1ccc(C(=O)NCCCCCC(=O)Nc2ccccc2N)cc1 [RGFP 109]
effect of dose on long-term memory for object recognition: Dose dependent effects
